Some entries share one result that the patent states for a list of compounds. For part of these data: For at least one compound, name, drawing or mass did not settle the structure.
Tested on: Pythium Ultimum
Assay: Pythium ultimum / liquid culture (seedling damping off)
Format: cell-based
Details: 20 ppm, potato dextrose broth, 24° C., 2-3 days after application

Structure (SMILES) | disease control (inhibition of growth, photometrically)
OB1OCc2cc(Cl)c(-c3ccco3)cc21 [Compound 33] | at least 80%

Tested on: Magnaporthe Grisea(Pyricularia Oryzae)
Assay: not given
Format: in vivo
Details: 200 ppm; rice leaf segments cv. Ballila, preventative, inoculated 2 days after application; assessed 5-7 days after application

Structure (SMILES) | disease control
OB1OCc2cc(F)c(-c3ncon3)cc21 [Compound 97] | at least 80%
OB1OCc2cc(Cl)c(-c3cccs3)cc21 [Compound 3] | at least 80%
OB1OCc2cc(F)c(-c3ccco3)cc21 [Compound 5] | at least 80%
OB1OCc2cc(F)c(-c3cccs3)cc21 [Compound 6] | at least 80%
OB1OCc2cc(Cl)c(-c3ncon3)cc21 [Compound 96] | at least 80%
